Source: article PMC2794458

Protein sequences, listed by entry. Tags and fused reporters are not part of them. Lines headed by an entry give the natural chain unless they say otherwise; changes in a name come on top.
UniProt Q06512: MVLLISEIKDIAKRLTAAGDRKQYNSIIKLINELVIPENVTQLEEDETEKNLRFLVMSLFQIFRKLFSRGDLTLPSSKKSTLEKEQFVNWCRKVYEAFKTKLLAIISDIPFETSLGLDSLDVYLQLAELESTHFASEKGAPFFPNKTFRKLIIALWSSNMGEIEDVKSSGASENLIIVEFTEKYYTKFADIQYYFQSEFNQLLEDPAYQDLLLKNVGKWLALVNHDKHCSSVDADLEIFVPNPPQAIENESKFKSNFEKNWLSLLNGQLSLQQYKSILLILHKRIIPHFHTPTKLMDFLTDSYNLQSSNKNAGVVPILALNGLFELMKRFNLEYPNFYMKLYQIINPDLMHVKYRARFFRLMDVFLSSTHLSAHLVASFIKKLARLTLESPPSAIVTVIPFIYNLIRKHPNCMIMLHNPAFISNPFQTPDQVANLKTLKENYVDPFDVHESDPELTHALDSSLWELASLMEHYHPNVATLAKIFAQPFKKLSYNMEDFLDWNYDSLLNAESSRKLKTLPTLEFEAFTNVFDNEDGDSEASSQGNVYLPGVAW

T1: Nop14p-HA (S. cerevisiae) (UniProt Q99207)
T1 sequence: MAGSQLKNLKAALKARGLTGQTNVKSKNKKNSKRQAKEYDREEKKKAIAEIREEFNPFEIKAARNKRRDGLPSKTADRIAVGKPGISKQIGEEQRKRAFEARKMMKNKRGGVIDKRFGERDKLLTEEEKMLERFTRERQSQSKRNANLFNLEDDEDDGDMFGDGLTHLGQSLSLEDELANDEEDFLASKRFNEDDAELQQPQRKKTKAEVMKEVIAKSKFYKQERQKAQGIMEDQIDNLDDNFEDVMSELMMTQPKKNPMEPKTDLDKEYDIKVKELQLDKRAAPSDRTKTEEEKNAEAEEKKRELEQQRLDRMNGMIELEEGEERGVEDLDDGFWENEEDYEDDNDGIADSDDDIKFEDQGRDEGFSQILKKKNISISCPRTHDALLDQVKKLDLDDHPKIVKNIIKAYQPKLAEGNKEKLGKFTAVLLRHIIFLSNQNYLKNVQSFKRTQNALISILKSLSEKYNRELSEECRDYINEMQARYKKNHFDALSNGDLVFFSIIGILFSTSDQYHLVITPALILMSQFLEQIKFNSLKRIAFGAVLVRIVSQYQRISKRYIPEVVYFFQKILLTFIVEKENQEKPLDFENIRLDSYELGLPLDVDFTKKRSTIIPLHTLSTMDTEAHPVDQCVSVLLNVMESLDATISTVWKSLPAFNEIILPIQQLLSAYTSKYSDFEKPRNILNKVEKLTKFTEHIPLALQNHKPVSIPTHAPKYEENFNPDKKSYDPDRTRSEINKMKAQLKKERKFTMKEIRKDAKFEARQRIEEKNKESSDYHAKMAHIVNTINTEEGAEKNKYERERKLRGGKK

B1: Nop14p-HA (protein, UniProt Q99207 1-810)
chain: T1 sequence

Legend:
[1] = biological target: T1, Nop14p-HA (S. cerevisiae); assay: co-IP; HA-tagged Nop14p immunoprecipitated with anti HA antibodies from the corresponding yeast cell extracts; co-precipitated Noc4p variants analysed (Fig. S1B)
[2] = biological target: ProtA-Noc4p lacking Domain 1 to 4 (S. cerevisiae); assay: co-IP; ProtA-Noc4p variants affinity purified on IgG-Sepharose from extracts of yeast ToY489 after 16 h on glucose to shut off wild-type NOC4; buffer A200 (200 mM KCl, 20 mM Tris pH 8.0, 5 mM MgAc, 1 mM DTT), 4°C; Nop14p-HA detected by Western blot with anti-HA
[3] = biological target: ProtA-Noc4p lacking Domain 5 (S. cerevisiae) (UniProt Q06512); assay: as above
[4] = biological target: ProtA-Noc4p lacking Domain 8 (S. cerevisiae); assay: as above

Row | Molecule | binding [1] | also measured
1 | ProtA-Noc4p lacking Domain 1 to 4 (S. cerevisiae) (domain or fragment) | binds | –
2 | ProtA-Noc4p lacking Domain 5 (from UniProt Q06512) | binds | –
3 | ProtA-Noc4p lacking Domain 6 (from UniProt Q06512) | no binding | –
4 | ProtA-Noc4p lacking Domain 7 (Noc-domain) (from UniProt Q06512) | no binding | –
5 | ProtA-Noc4p lacking Domain 8 (S. cerevisiae) (domain or fragment) | no binding | –
6 | B1 | – | binding [2]: binds; binding [3]: binds; binding [4]: no binding

No constants are given. Whether binding was seen depends on the method and setting. Binding seen in cells or lysates may run through a third protein. For some assays here: Binding can be weak; no strength is given. Where a sequence is shown, tags or fusion partners need not be part of it.
